Like-named read-outs stand apart in the source and are kept apart here. Results are given in words; binding and its absence hold for the method and conditions named. In cells and extracts the contact can be indirect. Here binding means that the protein was enriched with, or labelled near, the bait; the list need not be complete. For part of these data: Where a sequence is shown, tags or fusion partners need not be part of it.

Assay [1] has as its target T1, HA-LUBEL^1-872 (Drosophila melanogaster) (UniProt Q8IPJ3).
T1 sequence: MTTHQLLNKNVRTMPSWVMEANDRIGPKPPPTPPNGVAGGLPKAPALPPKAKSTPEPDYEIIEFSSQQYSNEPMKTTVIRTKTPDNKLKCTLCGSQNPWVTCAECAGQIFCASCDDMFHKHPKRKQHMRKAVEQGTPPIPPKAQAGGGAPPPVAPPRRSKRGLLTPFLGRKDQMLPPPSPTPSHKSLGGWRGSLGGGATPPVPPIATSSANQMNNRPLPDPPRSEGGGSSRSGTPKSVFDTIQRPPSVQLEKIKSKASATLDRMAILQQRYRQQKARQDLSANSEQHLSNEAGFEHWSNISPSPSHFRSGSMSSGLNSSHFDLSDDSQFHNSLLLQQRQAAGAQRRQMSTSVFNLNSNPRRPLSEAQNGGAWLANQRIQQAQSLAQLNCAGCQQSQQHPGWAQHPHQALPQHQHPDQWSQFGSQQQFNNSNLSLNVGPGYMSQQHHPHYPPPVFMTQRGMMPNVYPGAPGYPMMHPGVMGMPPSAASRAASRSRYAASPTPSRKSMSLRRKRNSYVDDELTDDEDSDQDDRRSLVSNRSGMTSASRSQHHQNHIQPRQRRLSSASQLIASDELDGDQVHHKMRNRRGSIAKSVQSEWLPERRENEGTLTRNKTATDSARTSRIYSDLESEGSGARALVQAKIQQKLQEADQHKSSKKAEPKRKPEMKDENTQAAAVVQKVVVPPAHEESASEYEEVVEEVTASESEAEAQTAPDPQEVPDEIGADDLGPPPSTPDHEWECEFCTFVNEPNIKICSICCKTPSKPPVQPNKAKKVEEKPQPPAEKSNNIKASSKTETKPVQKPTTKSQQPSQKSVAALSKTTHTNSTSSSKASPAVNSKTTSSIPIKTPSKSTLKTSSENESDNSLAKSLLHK
As to the kind of experiment: affinity purification with mass spectrometry; HA-LUBEL^1-872 or LacZ (control) expressed in 3IL body wall muscles; carcass fillet lysates (1% NP-40, 1 mM EDTA, 20 mM tris-HCl pH 7.4, 150 mM NaCl), anti-HA magnetic beads, on-bead trypsin digest, LC-MS/MS.

Assay [2] has as its target miniTurbo-3xHA-LUBEL (Drosophila melanogaster) (UniProt Q8IPJ3). Put plainly: proximity labelling; miniTurbo-fused bait expressed in larval body wall muscles (Mef2-GAL4); larvae reared on 1 mM biotin for 2 days at 25°C; biotinylated peptides enriched on Tamavidin 2-REV beads and analysed by MS; fold change against mnTb alone.
Assay [3] concerns the target T1, HA-LUBEL^1-872 (Drosophila melanogaster). As to the kind of experiment: affinity purification with mass spectrometry; HA-LUBEL^1-872 or LacZ (control) expressed in 3IL body wall muscles; carcass fillet lysates (1% NP-40, 1 mM EDTA, 20 mM tris-HCl pH 7.4, 150 mM NaCl), anti-HA magnetic beads, on-bead trypsin digest, LC-MS/MS. This is another data set of the same source.

In the case of “LUBEL (from UniProt Q8IPJ3 1-2892) (enzyme)”, the binding entry in assay [1] is “binds”.

B1: Amphiphysin (Amph) (protein, UniProt Q7KLE5 1-602)
chain: MTENKGIMLAKSVQKHAGRAKEKILQNLGKVDRTADEIFDDHLNNFNRQQASANRLQKEFNNYIRCVRAAQAASKTLMDSVCEIYEPQWSGYDALQAQTGASESLWADFAHKLGDQVLIPLNTYTGQFPEMKKKVEKRNRKLIDYDGQRHSFQNLQANANKRKDDVKLTKGREQLEEARRTYEILNTELHDELPALYDSRILFLVTNLQTLFATEQVFHNETAKIYSELEAIVDKLATESQRGSNTLRKQTSNPIKTSSPVQSPVNKLNNANINSNYQNQITTNGGSSLANSPTSTSSSLQEPRFDSVSSTPEPRPESPAAALVSATPSSPVENGVTTKSLERPELSGLNASAKATTTTQTSPTEDKAVVSEAVKPSETEGAAVAASVTPAPPATPAQINGNNNEPSIVKEGGKQPKELPSTTSNAEAAAEAAANNGNSIEEHKQKKLGNDTTVTATETVTVTQHSVTSTDTDNIVTISDTNTDTDTKTSTGTSQKGRPVPVVNRHSVNNLNKNPFEDDDERIYEVPADANTADLPPGVLYRVKATYGYAKEDVDELSFEIGDLIRVIEYDDPEDQEEGWLMGQKEGTNEKGLFPANFTRPI
For B1, the binding entry in assay [2] and in assay [3] was “binds” each time.

Values taken from PMC12778051.
